The assay addresses VEGF receptor-2 (VEGFR2, Flk-1) (human (endogenous in HUVEC)) (UniProt P35968). Description: co-IP; VEGFR2 immunoprecipitated from HUVEC lysates (1 mg) O/N at 4 °C with 4 μg anti-FLK-1 rabbit antibody and Protein A-Sepharose; cells unstimulated or stimulated with VEGF (50 ng/ml) for 10 or 20 min; lysis buffer 50 mM HEPES pH 7.5, 0.5% Nonidet P-40, 0.5% Triton X-100, 150 mM NaCl; immunoblot for CdGAP; rabbit IgG as control.

Chains of the proteins cited; added tags and fusions are not shown. Residues count along the entry.
UniProt P35968, residues 20-1356: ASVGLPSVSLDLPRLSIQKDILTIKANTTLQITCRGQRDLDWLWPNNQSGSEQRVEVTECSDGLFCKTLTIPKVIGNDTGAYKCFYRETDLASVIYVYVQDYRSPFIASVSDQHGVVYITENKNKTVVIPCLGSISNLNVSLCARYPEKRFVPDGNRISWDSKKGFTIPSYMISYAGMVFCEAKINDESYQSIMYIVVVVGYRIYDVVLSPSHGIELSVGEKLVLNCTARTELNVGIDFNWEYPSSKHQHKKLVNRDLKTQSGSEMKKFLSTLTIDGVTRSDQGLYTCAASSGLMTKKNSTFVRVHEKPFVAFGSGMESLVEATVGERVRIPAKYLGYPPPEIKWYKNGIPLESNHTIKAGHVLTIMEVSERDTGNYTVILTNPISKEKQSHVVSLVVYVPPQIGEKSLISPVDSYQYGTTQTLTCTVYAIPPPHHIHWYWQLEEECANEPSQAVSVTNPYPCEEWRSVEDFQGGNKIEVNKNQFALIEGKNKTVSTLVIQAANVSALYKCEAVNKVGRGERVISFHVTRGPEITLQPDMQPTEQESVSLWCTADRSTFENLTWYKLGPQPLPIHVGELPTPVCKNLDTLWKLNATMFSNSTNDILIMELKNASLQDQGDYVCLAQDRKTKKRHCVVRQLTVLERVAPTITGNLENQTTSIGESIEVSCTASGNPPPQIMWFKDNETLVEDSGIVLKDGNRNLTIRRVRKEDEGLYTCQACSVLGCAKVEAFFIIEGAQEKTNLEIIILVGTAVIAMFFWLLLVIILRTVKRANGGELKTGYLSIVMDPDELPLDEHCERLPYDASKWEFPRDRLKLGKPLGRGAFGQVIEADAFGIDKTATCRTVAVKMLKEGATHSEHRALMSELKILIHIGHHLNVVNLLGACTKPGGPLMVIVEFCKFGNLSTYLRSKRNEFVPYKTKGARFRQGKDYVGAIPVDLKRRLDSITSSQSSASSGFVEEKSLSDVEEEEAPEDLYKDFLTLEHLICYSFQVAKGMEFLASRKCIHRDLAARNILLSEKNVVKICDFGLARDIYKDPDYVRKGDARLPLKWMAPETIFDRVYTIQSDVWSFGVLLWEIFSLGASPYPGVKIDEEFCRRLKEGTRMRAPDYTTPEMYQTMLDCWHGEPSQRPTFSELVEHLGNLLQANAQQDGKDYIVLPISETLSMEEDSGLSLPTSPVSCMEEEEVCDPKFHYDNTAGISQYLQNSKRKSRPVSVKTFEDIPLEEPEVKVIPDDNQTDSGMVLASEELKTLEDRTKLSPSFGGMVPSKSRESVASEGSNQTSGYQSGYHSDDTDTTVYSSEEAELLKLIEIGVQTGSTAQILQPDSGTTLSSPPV
UniProt Q2M1Z3: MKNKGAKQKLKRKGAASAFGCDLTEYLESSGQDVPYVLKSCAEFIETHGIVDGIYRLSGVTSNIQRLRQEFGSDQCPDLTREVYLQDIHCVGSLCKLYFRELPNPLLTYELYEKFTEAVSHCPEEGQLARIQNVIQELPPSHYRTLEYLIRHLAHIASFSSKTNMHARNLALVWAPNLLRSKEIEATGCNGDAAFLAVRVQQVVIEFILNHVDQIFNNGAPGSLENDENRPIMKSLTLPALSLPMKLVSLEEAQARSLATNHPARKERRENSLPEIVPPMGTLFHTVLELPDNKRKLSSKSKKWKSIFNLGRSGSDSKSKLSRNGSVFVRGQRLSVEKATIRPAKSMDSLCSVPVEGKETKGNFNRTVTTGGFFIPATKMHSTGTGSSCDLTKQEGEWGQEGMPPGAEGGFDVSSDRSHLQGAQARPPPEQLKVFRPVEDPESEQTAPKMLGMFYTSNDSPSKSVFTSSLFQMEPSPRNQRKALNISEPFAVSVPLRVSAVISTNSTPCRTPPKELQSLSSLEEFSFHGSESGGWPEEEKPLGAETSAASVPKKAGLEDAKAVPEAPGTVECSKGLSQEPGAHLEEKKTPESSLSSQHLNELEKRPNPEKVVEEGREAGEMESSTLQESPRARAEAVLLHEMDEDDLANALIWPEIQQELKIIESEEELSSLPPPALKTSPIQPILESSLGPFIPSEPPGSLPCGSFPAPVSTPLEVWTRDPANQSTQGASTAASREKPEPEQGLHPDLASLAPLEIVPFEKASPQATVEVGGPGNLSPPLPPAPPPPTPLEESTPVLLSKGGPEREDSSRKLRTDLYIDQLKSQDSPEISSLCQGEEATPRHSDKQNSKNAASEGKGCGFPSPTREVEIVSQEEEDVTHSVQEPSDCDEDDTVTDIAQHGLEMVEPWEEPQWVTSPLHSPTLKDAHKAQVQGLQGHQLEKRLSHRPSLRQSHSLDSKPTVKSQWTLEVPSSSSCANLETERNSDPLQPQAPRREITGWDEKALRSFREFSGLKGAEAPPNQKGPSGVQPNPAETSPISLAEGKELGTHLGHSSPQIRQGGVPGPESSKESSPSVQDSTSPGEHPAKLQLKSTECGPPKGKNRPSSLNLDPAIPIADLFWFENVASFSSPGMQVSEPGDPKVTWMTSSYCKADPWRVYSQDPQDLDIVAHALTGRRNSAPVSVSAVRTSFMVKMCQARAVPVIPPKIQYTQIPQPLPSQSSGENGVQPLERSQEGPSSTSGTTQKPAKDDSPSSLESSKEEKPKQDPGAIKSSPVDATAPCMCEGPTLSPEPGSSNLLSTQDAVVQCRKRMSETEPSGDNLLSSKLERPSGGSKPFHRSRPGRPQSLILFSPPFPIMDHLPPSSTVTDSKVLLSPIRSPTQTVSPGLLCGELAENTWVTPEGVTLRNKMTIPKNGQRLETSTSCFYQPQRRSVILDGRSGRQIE

Consider one substance from PMC4895392.

Results are given in words; binding and its absence hold for the method and conditions named. Binding seen in cells or lysates may run through a third protein. Some binding calls cover weakened binding; strength is not graded here.

With “CdGAP (Cdc42 GTPase-activating protein)/ARHGAP31 (from UniProt Q2M1Z3 1-1444)”, the binding entry is recorded as “binds”.
